Experimental data: doi:10.1101/2025.06.27.661974 (bioRxiv, 2025)
Where a chain is given by its changes, count along the chain named. These are yes or no findings as the source states them, for the method shown. Binding seen in cells or lysates may run through a third protein. Some binding calls cover weakened binding; strength is not graded here.

Assays:
Assay in all cases: co-IP
[1] = target: T1, hUBE2O H1130A (human) (UniProt Q9C0C9)
T1 sequence: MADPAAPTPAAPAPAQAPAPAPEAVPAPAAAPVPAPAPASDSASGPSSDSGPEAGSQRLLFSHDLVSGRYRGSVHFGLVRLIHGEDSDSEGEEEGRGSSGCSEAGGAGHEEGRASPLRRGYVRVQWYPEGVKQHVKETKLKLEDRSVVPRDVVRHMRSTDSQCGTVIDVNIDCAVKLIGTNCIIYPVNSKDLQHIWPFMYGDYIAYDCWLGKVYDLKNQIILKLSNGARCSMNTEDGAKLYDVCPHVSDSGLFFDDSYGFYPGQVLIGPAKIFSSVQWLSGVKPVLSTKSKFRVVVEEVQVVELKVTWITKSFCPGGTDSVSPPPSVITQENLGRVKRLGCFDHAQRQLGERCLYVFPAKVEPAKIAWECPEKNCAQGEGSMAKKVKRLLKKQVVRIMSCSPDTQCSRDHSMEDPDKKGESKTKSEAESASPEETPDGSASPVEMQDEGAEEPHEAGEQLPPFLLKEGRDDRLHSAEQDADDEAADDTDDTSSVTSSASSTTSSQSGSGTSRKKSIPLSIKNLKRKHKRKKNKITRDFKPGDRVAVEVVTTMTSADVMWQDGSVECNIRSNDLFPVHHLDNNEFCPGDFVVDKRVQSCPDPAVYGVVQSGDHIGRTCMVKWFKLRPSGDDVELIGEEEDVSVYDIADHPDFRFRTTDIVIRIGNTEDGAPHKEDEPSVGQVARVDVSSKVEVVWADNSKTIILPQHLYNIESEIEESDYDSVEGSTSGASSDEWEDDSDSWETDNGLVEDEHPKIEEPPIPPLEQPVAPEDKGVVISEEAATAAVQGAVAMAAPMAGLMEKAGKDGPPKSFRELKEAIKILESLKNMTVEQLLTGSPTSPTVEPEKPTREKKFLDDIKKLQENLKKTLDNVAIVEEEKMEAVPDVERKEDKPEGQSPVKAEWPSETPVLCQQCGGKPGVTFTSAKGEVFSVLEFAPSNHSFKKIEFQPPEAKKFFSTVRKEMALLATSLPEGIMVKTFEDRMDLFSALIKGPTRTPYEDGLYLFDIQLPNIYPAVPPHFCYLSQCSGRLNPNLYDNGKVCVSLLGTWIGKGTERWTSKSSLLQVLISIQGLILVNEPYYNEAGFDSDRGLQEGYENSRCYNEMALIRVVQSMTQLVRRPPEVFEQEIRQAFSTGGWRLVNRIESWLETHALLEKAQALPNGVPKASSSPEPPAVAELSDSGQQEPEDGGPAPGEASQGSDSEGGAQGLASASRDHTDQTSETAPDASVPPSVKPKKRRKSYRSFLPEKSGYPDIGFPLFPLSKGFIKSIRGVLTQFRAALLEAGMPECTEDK

[2] = target: T2, hUBE2O T995A (human) (UniProt Q9C0C9)
T2 sequence: T1 sequence with T995A, A1130H

[3] = target: T3, hUBE2O H939A (human) (UniProt Q9C0C9)
T3 sequence: T1 sequence with H939A, A1130H

Measured: binding

B1: Flag-UBE2O-TwinStrep (recombinant Homo sapiens UBE2O, purified) (enzyme, human, UniProt Q9C0C9 1-1292, looked up)
chain: T1 sequence with A1130H
binds: [1] | [2] | [3]
